Assay results reported in PubChem BioAssay AID743255 (National Center for Advancing Translational Sciences (NCATS), 2014).
Among all 390,000 compounds or so, about 910 (0.23%) were called active. Inconclusive means that the source gave no clear call. Such entries were picked first, then a sample of the others. Calls come from the whole dose curve; as a rule, active = well fitted inhibition curve with a large enough effect; inconclusive = small, poorly fitted or top-dose-only effect; inactive = no such curve, though single readings can be large or run the other way. Potencies beside an inconclusive call are fits to weak or partial responses and may not hold up.

Sequences of proteins named here, by UniProt entry; tags and fusion partners are left off. A change or cut given only in a name is not applied to a line headed by its entry.
UniProt O94782: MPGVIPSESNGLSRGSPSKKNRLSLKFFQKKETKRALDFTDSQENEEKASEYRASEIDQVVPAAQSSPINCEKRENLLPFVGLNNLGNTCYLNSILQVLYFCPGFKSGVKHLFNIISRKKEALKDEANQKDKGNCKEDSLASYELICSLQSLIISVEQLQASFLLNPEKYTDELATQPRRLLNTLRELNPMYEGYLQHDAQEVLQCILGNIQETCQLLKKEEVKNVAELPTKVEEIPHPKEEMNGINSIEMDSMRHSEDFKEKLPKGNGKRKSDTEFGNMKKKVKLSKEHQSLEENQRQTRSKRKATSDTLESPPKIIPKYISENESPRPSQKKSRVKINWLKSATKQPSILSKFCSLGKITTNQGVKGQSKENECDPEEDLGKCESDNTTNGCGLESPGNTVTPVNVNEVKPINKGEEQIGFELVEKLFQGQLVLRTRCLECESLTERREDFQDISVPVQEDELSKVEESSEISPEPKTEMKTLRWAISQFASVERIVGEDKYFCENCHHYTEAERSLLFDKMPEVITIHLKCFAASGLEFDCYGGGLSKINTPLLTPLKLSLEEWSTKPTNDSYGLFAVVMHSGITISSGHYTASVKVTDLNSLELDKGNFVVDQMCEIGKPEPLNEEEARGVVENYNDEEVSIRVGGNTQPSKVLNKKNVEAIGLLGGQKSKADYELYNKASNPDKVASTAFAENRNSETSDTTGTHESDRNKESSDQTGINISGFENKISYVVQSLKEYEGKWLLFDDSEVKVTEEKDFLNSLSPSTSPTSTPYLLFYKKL

What follows are compounds tested against Ubiquitin carboxyl-terminal hydrolase 1 (Homo sapiens) (UniProt O94782) (assay: Inhibitors of USP1/UAF1: Primary Screen). Details: recombinant USP1/UAF1, Ub-Rhodamine cleavage fluorescence; activity change, negative = inhibition: at 57.1 µM (top of the series).
How it was run: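 1 nM enzyme complex + cpd, 15 min RT; start with Ub-Rho 150nM final; kinetic fluorescence ex 480/em 540, 6 reads q60 s. Buffer 50mM HEPES pH 7.8, 0.5mM EDTA, 0.1 mg/ml BSA, 1mM TCEP, 0.01% Tween-20.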
% is set by controls: 0 for no effect and ±100 for the full control effect; potency is the fitted concentration of half-maximal effect.
Note: nearly all actives have a fitted effect of over 60% in size.

Potency, active:
CC(=O)Oc1ccc(N2C(=O)C3C(C2=O)C(C(=O)c2ccc(Cl)cc2)N2CCCC32)cc1 (stereo unspecified) 22.4 µM
Cc1ccc(NC2=C/C(=N\S(=O)(=O)c3cccs3)c3ccccc3C2=O)c(C)c1 2 µM

Potency, inconclusive:
COc1cccc(OCC(=O)Nc2ccccc2C(=O)Nc2ccc(C(=O)O)cc2)c1 50.1 µM [inhibitor, partial curve, poor fit]
COc1ccccc1N1CCN(CC(O)COc2ccc(Cl)c(C)c2)CC1 (stereo unspecified) 2 µM [inhibitor, partial curve, poor fit]
COc1ccc(NC(=O)N2CCCC(C(=O)Nc3cccc(C)c3C)C2)cc1 (stereo unspecified) 35.5 µM [inhibitor, partial curve]
COc1cc(C(=O)NC2CCCCCCC2)cc(OC)c1OC 39.8 µM [inhibitor, partial curve, poor fit]
CCOC(=O)c1c(-c2ccc(OC)cc2)csc1/N=C/C1=C(O)CCCC1=O 44.7 µM [inhibitor, partial curve, poor fit]
Cc1nc2ccccc2cc1OCc1ccc(Cl)cc1 25.1 µM [inhibitor, partial curve]
Cc1cccc(N(C)c2nc3ccc(C(=O)c4ccccc4)cc3n3c(C)nnc23)c1 251 µM [inhibitor, partial curve, poor fit]
COc1ccc(Cc2nc3ccc(C(=O)NCc4ccccc4C)cc3o2)cc1 12.6 µM [inhibitor, partial curve]
Cc1ccccc1Oc1nc2ccccn2c(=O)c1/C=C(\C#N)c1nc2ccccc2[nH]1 31.6 µM [inhibitor, partial curve]
Cc1nc(N)sc1-c1csc(Nc2cccc(O)c2)n1 3.98 µM [inhibitor, full curve, poor fit]
CCOC(=O)C1CCCN(c2nc3c(S(=O)(=O)c4ccc(CC)cc4)nnn3c3ccsc23)C1 (stereo unspecified) 0.0398 µM [inhibitor, full curve, poor fit]
COc1ccc(NC(=O)[C@H]2O[C@@H]3OC(C)(C)O[C@@H]3[C@H]3OC(C)(C)O[C@H]32)c(OC)c1 5.62 µM [inhibitor, partial curve]
CCc1cccc(NC(=O)C2CCCN(c3ncnc4onc(-c5ccc(F)cc5)c34)C2)c1 (stereo unspecified) 0.251 µM [inhibitor, full curve]
CCCC(O)c1nc2ccccc2n1CCCOc1ccc(Cl)cc1 (stereo unspecified) 89.1 µM [inhibitor, partial curve, poor fit]
COc1ccc(-n2nc(C(=O)NCC(=O)NCc3ccc(F)cc3)c3ccccc3c2=O)cc1OC 44.7 µM [inhibitor, partial curve, poor fit]
CC1Oc2ccccc2N(CC(=O)NCc2ccc3c(c2)OCO3)C1=O (stereo unspecified) 44.7 µM [inhibitor, partial curve, poor fit]
CCc1nc2ccc(C(=O)NCCc3ccccc3OC)cc2nc1CC 0.398 µM [inhibitor, full curve]
COc1cc(=O)n(C)c2ccccc12 0.794 µM [inhibitor, full curve, poor fit]
COc1ncnc2c1NC1=C(S2)C(=NCCC(=O)O)CC(C)(C)C1 25.1 µM [inhibitor, partial curve]
COc1ccc(N(Cc2cc3ccccc3[nH]c2=O)C(=O)c2cccc(Cl)c2)cc1 35.5 µM [inhibitor, partial curve, poor fit]
CCSc1ncc(Cl)c(C(=O)N2CCN(c3ccccc3OC)CC2)n1 44.7 µM [inhibitor, partial curve]
COc1ccccc1S(=O)Cc1ccc(C(=O)NCCc2ccc(Cl)cc2)o1 (stereo unspecified) 0.794 µM [inhibitor, full curve, poor fit]
CCN(CC)c1ccc2cc(C(=O)Nc3ccccn3)c(=O)oc2c1 39.8 µM [inhibitor, single point]
O=C(O)c1cnc(-c2ccccc2)nc1C(F)(F)F 1.58 µM [inhibitor, partial curve, poor fit]
O=C(NCc1n[nH]c(=S)n1-c1ccc(Br)cc1)c1cccs1 4.47 µM [inhibitor, partial curve]
O=c1c2c3nc4ccccc4nc3n(-c3ccc4c(c3)OCCO4)c2ncn1C1CCCC1 12.6 µM [inhibitor, partial curve]
Cc1cc(C)cc(N(CC(=O)NCC2CCCO2)S(=O)(=O)c2c(C)noc2C)c1 (stereo unspecified) 0.891 µM [inhibitor, full curve, poor fit]
Cc1ccc(N2CC(C(=O)Nc3nnc(SCC(=O)NCC4CCCO4)s3)CC2=O)cc1 (stereo unspecified) 14.1 µM [inhibitor, partial curve, poor fit]
CCCCC1=CC2=CC(=O)C(C)(OC(=O)CC)C(=O)C2=CN1C(CO)CO (stereo unspecified) 0.631 µM [inhibitor, full curve, poor fit]
COc1ccc(Br)cc1CNC(=O)CCCc1cn(C)c2ccccc12 39.8 µM [inhibitor, partial curve, poor fit]
C=CC[C@@H](CC(=O)N[C@H](CO)Cc1ccccc1)C(=O)N[C@H](COC(=O)[C@@H](CC=C)CC(=O)OC(C)(C)C)Cc1ccccc1 0.251 µM [inhibitor, full curve, poor fit]
Cn1c2ccccc2c(=O)c2ccc(-c3ccc4c(c3)OCO4)cc21 5.62 µM [inhibitor, full curve, poor fit]
Cc1ccc(S(=O)(=O)c2c(O)cc(C)c(NS(=O)(=O)c3ccc(Br)cc3)c2C)cc1 39.8 µM [inhibitor, partial curve, poor fit]
COCCCNC(=O)C1CCN(Cc2cc3ccccc3n2Cc2ccccc2C)CC1 2.82 µM [inhibitor, partial curve]
O=C(/C=C/c1cccc(OCc2ccccc2)c1)c1cccnc1 39.8 µM [inhibitor, partial curve, poor fit]
CCN1C(=NCCCOC(C)C)N[C@@H](CCc2ccccc2)[C@H](C(=O)NCCCOC(C)C)[C@H]1C 44.7 µM [inhibitor, partial curve]
COC(=O)[C@@]1(Cc2ccc(F)cc2)[C@H]2c3cc(C(=O)N(C)C)n(Cc4nc5ccccc5[nH]4)c3C[C@H]2CN1C(=O)c1ccccc1 3.16 µM [inhibitor, full curve]
C=CC[C@H](CC(=O)N(CCO)Cc1ccccc1)C(=O)N[C@H](COC(=O)[C@@H](CC=C)Cc1ccc(F)cc1)C(C)(C)C 3.98 µM [inhibitor, full curve, poor fit]
O=C(NC1CCCC1)c1ccc(CNc2c(N3CCOCC3)c(=O)c2=O)cc1 31.6 µM [inhibitor, partial curve]

Ordered by length of the SMILES (descending): 3 of the compounds above
Potency, inconclusive:
Cc1cc(C)cc(N(CC(=O)NCC2CCCO2)S(=O)(=O)c2c(C)noc2C)c1 (stereo unspecified) 0.891 µM [inhibitor, full curve, poor fit]
O=C(NC1CCCC1)c1ccc(CNc2c(N3CCOCC3)c(=O)c2=O)cc1 31.6 µM [inhibitor, partial curve]
COc1cc(=O)n(C)c2ccccc12 0.794 µM [inhibitor, full curve, poor fit]

Following part.

Potency, inactive:
Cc1ccc(S(=O)(=O)CCC(=O)N(CCN2CCOCC2)c2nc3ccccc3s2)cc1
O=C(O)c1cc(/C=C/c2ccc(N3CCOCC3)c([N+](=O)[O-])c2)nc2ccccc12
c1ccc(CNc2nc3ccccc3[nH]2)cc1
COc1ccc(N2CC(C(=O)Nc3nnc(SCC(=O)NCC4CCCO4)s3)CC2=O)cc1 (stereo unspecified)
COc1ccccc1NC(=O)Cn1cc(S(=O)(=O)Cc2ccccc2)c2ccccc21
CC(C)(C)c1ccc(OCCCC(=O)NNC(=O)c2ccccc2O)cc1
CCOc1ccc(-c2cc3c(=O)n(CC(=O)NCc4ccc(C)cc4)ccn3n2)cc1
CC(=O)c1ccc(NC(=O)C(C)NCc2ccccc2Cl)cc1 (stereo unspecified)
Cn1c(NN)nc2sc3c(c2c1=O)CC(C)(C)OC3
CC(O)CNc1nc2sc3c(c2c(=O)n1CCc1ccccc1)CCCCC3 (stereo unspecified)
COc1cccc(-n2ccnc2SCC(=O)Nc2c(C)cc(C)cc2C)c1
COCCCN(C(=S)Nc1cc(Cl)cc(Cl)c1)C(C)c1ccccn1 (stereo unspecified)
O=C(/C=C/c1cccc([N+](=O)[O-])c1)Nc1cccc(NC(=O)c2ccco2)c1
COc1cc(Cl)nn(-c2ccccc2)c1=O
COC(=O)c1sccc1NC(=S)OC
Cc1ccc(-n2ncc3c2CCCC3NC(=O)CCc2cnccn2)cc1C (stereo unspecified)
O=C(Nc1nnc(-c2ccncc2)o1)c1ccccc1
COc1ccc2oc(=O)c(C(=O)NCc3ccc(C)cc3)cc2c1
Cc1cc(N2CCN(C)CC2)nc2ccc(NC(=S)NCc3cccs3)cc12
CC(=O)N1CCc2cc(Br)cc(S(=O)(=O)CCC(=O)N3CCN(c4ccc(F)cc4)CC3)c21
CC1(C)CC(NC(=O)C(c2ccccc2)c2ccccc2)CC(C)(C)N1
Cc1ccc(NS(=O)(=O)c2cc([N+](=O)[O-])ccc2NNC(=S)Nc2cc(C)ccc2C)c(C)c1
CC1CC(C)CN(CCCNC(=O)c2ccc3c(c2)NC(=O)CS3)C1 (stereo unspecified)
Cc1ccc(Cn2c(SCc3ccc(C(=O)NC4CCCCC4)cc3)nc3ccncc32)cc1

Already shown: five of the compounds above.
Potency, inactive:
COc1cc(Cl)nn(-c2ccccc2)c1=O
COC(=O)c1sccc1NC(=S)OC
Cc1ccc(-n2ncc3c2CCCC3NC(=O)CCc2cnccn2)cc1C (stereo unspecified)
O=C(Nc1nnc(-c2ccncc2)o1)c1ccccc1
COc1ccc2oc(=O)c(C(=O)NCc3ccc(C)cc3)cc2c1

Next part.

Activity change, negative = inhibition, inconclusive:
CCOC(=O)c1cnc2cc(C(F)(F)F)ccc2c1Nc1cc(C)ccc1OC -28.9% [inhibitor]
